{"sequences": {"note": "Chains of the proteins cited; added tags and fusions are not shown. Lines headed by an entry give the natural chain unless they say otherwise; changes in a name come on top.", "UniProt P09626": "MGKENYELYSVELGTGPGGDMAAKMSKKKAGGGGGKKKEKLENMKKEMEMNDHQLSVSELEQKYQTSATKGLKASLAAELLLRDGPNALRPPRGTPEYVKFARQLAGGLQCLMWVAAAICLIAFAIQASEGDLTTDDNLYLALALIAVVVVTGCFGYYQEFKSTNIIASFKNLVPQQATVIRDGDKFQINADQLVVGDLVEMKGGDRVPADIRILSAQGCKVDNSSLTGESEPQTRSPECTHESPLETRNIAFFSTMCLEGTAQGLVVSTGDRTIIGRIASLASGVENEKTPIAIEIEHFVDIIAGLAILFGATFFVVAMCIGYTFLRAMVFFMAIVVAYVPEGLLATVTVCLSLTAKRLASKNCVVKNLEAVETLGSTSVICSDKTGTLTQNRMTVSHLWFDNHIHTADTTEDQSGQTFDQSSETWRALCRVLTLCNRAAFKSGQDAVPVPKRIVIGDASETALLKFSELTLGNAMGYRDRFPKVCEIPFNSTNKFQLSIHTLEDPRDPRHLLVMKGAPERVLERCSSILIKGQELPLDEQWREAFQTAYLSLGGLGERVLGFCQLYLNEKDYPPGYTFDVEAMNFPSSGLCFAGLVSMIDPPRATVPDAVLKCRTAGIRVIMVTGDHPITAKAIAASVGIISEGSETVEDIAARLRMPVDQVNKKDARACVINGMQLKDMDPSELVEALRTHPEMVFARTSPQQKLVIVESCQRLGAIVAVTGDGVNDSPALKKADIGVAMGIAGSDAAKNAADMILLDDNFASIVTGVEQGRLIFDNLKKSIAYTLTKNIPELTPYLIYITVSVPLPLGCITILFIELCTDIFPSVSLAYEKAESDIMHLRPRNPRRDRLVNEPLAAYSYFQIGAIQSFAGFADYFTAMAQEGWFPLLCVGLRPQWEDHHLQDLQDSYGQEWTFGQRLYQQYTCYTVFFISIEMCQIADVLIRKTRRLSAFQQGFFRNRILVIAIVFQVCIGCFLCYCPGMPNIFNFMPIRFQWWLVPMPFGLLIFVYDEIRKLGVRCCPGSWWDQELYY"}, "source": "patent US20130150294A1", "molecular_target": "Src of LLC-PK1 cells (endogenous) (pig) (UniProt K7GM45)", "assay": "GST pulldown from cell lysates, Western blot", "note": "No constants are given. Whether binding was seen depends on the method and setting. Binding seen in cells or lysates may run through a third protein. Some binding calls cover weakened binding; strength is not graded here."}
{"substance": "GST-H+/K+-CD3 (from UniProt P09626 348-778)", "values": [{"measurement": "binding", "value": "binds"}]}
